Common to all, as to experiment: QC ELISA of the IgG on its target peptide
Assay [1] addresses T1, Ag3G (Bio-PGVCN(GlcNAc)ETMMA).
T1 sequence (peptide, GlcNAc on Asn at position 5; N-terminal biotin (Bio-) as printed in Table 3): PGVCNETMMA

Assay [2] has as its target T2, Ag7G (Bio-WKMLN(GlcNAc)TSSLE).
T2 sequence (peptide, GlcNAc on Asn at position 5; N-terminal biotin (Bio-) as printed in Table 3): WKMLNTSSLE

The target in assay [3] is T3, Ag5G (Bio-SRLAN(GlcNAc)LTQGE).
T3 sequence (peptide, GlcNAc on Asn at position 5; N-terminal biotin (Bio-) as printed in Table 3): SRLANLTQGE

Assay [4] deals with T4, Ag6G (Bio-CSTNN(GlcNAc)PSQAK).
T4 sequence (peptide, GlcNAc on Asn at position 5; N-terminal biotin (Bio-) as printed in Table 3): CSTNNPSQAK

These are yes or no findings as the source states them, for the method shown. Some binding calls cover weakened binding; strength is not graded here.

B1: Ag3G-4 (antibody, V domains shown)
VH: QEQLEESGGRLVTPGTPLTLTCAVSGFSLSSYGVSWVRQAPGKGLEYIGYIDVSGSAYYASWARGRFTISRTSTTVDLKMTSLTTEDTATYFCARGSPGYDANDLWGQGTLVTISS
VL: DVVMTQTPASVEAAVGGTVTIKCQASQSISTYLSWHQQKPGQPPKLLIYRASTLESGVPSRFKGSGSGTEFALTISDLECADAATYYCQTAHDSSGRGTWGVIFGGGTEVVVKR
For the molecule B1, the binding entry in assay [1] is listed as “binds”.

B2: Ag7G-17 (antibody, V domains shown)
VH: AQSLEESGGRLVTPGTPLTLTCTASGFSLNTYYWVSWVRQAPGKGLEWIGHINPDGTAYYATWAKGRFTISRTSTTVDLKITSPTTEDTATYFCARLGSTGDNFNIWGPGTLVTISS
VL: YVMMTQTPASVSEPVGGTVTIKCQASQSIDSYLAWYQQKPGQPPKLLIYKASTLASGVPSRFSGSGSGTQFTLTISDVECDDAATYYCQCSHYGSNWLGPFGGGTEVVVKR
Take B2: the binding result in assay [2] is listed as “binds”.

B3: Ag5G-17 (antibody, V domains shown)
VH: QEQLVESGGRLVTPGTPLILTCTASGFSLSRHTMSWVRQAPGKGLEWIGYITYGGSAYSANWAKGRFTISRTSTTVDLKMNSLTTEDTATYFCGRVGAYGAYYDLWGQGTLVTVSS
VL: DVVMTQTPSSKSVPVGDTVTINCQASESVYVNNFLSWYRQKPGQPPKRLIYSASTLASGVPSRFSGSGSGTQFTLTISDVVCDDAATYYCAGYHEFNTDGNAFGGGTEVVVKR
For B3, the binding entry in assay [3] is on record as “binds”.

B4: Ag6G-1 (antibody, V domains shown)
VH: QSVEESGGRLVTPGTPLTFSCTASGFSLNSYYMSWVRQAPGKGLEWIGLVSTDGSAYYASWAKGRFTISRTSTTVDLKLTSLTTEDAATYFCARDRGSDSYIDQLDLWGQGTLVTISS
VL: DPMLTQTPSSVSAAVGGTVTANCQSSQSVRGNNDLAWYQQKPGQPPKLLIYDASKLASGVPSRFKGSGSGTDFTLTISDLECADAATYYCQQGHRVEDVANAFGGGTEVVVKR
Consider B4, for which the binding result in assay [4] was “binds”.

B5: Ag7G-19 (antibody, V domains shown)
VH: QSVEESGGRLVTPGTPLTLTCTVSGIDLSSNAMSWVRQAPGGGLEWIGTINTNGKTYDASWMNGRFTISKTSSTTVDLKMTSLTTEDTATYFCARGRWTGNTGWYIDLWGPGTLVTVSS
VL: YVMMTQTPSSTSAAVGGTVTINCQSSQSVYSNSFLSWYQQKPGQLPKLLIYKASTLASGVPSRFKGSGSGTQFTLTISELQCDDAATYYCQGGYVDWMRAFGGGTEVVVKR
As to B5, in assay [2], the binding entry is on record as “binds”.

Values taken from patent publication US20210388108A1 (GLYCARDIAL DIAGNOSTICS S L, published 2021).
